Assay results taken from article doi:10.1101/493791.
Results are given in words; binding and its absence hold for the method and conditions named. Binding seen in cells or lysates may run through a third protein. Here binding means that the protein was enriched with, or labelled near, the bait; the list need not be complete.

Amino acid sequences for entries named in this document (tags omitted). Residues count along the entry.
UniProt Q969H0: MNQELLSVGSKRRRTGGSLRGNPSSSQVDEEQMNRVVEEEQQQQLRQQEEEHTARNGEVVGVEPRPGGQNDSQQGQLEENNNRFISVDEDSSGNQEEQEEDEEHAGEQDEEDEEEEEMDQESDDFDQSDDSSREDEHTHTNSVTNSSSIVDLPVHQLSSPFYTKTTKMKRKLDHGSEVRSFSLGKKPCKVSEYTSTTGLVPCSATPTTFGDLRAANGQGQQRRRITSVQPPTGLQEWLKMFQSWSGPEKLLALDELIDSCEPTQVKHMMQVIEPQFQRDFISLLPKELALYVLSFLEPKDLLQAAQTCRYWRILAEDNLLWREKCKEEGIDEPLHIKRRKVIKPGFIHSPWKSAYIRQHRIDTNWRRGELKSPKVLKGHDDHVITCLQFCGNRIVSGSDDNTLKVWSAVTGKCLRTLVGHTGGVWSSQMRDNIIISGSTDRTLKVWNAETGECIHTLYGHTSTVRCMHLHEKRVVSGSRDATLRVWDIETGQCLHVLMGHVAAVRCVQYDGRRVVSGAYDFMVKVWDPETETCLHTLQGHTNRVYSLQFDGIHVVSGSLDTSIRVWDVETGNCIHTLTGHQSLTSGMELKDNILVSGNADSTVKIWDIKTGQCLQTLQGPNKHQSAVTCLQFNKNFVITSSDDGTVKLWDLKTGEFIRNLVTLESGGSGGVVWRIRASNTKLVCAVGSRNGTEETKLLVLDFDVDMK
UniProt Q04721, residues 26-2471: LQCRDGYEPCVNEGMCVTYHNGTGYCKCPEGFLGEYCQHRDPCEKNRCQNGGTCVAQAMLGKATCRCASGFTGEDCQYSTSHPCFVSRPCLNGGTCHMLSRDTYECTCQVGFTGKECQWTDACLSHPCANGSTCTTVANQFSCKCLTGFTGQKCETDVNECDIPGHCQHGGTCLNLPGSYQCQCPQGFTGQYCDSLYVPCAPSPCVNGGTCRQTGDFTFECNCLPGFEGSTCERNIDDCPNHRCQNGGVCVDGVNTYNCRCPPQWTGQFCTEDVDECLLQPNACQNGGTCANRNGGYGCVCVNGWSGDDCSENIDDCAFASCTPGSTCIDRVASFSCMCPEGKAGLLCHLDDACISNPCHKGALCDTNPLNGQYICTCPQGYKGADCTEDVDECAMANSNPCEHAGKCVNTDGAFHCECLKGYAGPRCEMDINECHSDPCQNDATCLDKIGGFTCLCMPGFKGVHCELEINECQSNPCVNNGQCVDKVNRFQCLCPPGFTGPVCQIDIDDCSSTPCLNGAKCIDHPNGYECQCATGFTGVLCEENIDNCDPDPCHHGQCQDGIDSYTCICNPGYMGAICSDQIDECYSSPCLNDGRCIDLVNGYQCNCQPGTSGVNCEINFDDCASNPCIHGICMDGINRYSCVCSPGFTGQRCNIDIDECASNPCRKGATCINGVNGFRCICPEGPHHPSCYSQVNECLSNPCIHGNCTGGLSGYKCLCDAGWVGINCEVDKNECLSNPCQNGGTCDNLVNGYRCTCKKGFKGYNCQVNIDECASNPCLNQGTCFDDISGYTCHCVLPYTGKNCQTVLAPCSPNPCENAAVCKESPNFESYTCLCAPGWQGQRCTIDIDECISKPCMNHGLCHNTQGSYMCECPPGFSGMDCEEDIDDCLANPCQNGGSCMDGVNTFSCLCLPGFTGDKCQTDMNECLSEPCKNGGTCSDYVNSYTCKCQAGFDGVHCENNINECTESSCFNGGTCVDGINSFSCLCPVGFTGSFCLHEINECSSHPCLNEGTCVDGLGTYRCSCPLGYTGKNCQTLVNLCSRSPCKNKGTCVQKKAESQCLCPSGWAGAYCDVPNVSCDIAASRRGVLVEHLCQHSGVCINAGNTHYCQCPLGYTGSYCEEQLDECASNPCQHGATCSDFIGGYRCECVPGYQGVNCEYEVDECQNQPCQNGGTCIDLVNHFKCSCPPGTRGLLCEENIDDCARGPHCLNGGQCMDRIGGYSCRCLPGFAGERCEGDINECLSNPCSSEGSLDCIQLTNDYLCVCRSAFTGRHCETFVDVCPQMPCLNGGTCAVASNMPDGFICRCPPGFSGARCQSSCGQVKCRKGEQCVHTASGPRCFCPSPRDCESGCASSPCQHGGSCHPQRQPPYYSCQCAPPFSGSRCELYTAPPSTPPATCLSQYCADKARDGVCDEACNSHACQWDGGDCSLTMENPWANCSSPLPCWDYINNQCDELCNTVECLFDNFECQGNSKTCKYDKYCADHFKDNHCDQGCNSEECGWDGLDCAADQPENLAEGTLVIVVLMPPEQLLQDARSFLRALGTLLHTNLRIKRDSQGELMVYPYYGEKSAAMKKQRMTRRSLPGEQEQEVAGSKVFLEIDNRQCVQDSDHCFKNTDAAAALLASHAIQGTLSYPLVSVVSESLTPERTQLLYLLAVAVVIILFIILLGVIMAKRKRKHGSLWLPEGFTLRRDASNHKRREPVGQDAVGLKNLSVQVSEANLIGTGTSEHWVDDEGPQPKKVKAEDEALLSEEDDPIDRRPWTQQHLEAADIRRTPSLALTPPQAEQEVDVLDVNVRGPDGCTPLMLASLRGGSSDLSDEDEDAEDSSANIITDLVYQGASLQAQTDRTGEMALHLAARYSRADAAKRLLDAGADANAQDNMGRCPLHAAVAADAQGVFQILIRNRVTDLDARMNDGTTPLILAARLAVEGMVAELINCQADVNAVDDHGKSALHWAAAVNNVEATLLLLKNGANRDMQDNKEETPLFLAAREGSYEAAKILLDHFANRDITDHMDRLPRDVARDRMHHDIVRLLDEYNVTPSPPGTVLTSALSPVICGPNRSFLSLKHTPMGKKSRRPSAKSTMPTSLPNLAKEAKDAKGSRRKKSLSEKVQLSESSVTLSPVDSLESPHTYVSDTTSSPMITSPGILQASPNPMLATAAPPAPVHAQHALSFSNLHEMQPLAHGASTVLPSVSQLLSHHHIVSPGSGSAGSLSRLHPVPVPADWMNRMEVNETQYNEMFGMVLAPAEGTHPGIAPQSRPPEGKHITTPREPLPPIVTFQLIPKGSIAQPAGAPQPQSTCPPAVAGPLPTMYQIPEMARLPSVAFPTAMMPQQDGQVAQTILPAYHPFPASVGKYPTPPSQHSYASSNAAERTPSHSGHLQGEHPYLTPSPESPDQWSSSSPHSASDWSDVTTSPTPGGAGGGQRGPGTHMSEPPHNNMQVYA
UniProt P01106: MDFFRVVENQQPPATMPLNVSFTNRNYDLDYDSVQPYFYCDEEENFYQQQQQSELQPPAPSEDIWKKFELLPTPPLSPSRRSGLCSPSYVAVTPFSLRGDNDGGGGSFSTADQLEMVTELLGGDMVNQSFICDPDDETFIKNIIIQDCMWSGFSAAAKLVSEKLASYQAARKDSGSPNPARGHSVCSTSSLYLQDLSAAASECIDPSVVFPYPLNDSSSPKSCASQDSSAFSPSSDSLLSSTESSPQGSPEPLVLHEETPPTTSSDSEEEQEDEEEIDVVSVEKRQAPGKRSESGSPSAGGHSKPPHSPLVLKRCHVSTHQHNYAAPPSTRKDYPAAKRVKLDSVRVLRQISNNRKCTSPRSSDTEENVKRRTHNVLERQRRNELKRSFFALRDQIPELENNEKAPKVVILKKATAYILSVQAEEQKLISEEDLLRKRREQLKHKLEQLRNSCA

Biological target: Flag-FBXW7α (full-length) (human) (UniProt Q969H0)
Assay: affinity purification with mass spectrometry

binding	Molecule
binds	Notch2 (from UniProt Q04721 26-2471)
binds	MYC (from UniProt P01106 1-454)
binds	FBXO45 (endogenous) (protein, UniProt P0C2W1 1-286) MAAPAPGAGAASGGAGCSGGGAGAGAGSGSGAAGAGGRLPSRVLELVFSYLELSELRSCALVCKHWYRCLHGDENSEVWRSLCARSLAEEALRTDILCNLPSYKAKIRAFQHAFSTNDCSRNVYIKKNGFTLHRNPIAQSTDGARTKIGFSEGRHAWEVWWEGPLGTVAVIGIATKRAPMQCQGYVALLGSDDQSWGWNLVDNNLLHNGEVNGSFPQCNNAPKYQIGERIRVILDMEDKTLAFERGYEFLGVAFRGLPKVCLYPAVSAVYGNTEVTLVYLGKPLDG
